This note sets out measurements from publication PMC11011687.

Experiment [1] addresses T1, GFP-tagged NKRF (human) (UniProt O15226).
T1 sequence: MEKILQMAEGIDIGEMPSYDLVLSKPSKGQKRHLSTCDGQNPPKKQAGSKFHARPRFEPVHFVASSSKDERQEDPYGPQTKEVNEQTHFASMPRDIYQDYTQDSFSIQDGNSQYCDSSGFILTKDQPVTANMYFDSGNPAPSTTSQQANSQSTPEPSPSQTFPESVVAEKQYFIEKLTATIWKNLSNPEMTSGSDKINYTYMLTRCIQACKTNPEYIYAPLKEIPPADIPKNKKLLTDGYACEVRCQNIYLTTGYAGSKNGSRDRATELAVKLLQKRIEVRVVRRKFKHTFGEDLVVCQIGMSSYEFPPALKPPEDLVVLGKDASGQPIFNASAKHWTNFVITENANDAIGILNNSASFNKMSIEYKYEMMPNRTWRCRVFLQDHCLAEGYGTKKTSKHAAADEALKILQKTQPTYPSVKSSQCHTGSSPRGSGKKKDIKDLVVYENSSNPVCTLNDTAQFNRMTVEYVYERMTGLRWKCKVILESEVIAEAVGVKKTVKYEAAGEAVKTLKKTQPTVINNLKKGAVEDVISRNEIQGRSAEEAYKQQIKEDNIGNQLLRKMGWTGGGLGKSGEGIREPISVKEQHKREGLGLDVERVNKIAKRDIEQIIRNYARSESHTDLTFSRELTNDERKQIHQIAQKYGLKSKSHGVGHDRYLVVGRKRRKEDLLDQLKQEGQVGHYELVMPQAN
Kind of experiment: co-IP; HEK293T cells co-transfected with GFP-NKRF (or NKRF ∆(204-308)) and Flag-tagged A1CF or its truncated or deleted forms; immunoprecipitation with anti-GFP antibodies (stated for Figure 2C), Western blot.

In experiment [2] the target is GFP-fused A1CF (Apobec-1 complementation factor) (human). Kind of experiment: co-IP; extracts of HEK293T cells expressing GFP-tagged A1CF or the GFP-tag alone; anti-GFP antibody on Protein A agarose beads; Western blot of eluates. (A western blot detects proteins with antibodies after separation by electrophoresis.)
Experiment [3] concerns the target GFP-tagged A1CF in 786-O stable cell line (human). Kind of experiment: co-IP; extract of A1CF-overexpressed 786-O stable cells, immunoprecipitation in the presence of DNase or RNase (50 μg/mL, during the incubation with beads); blots for NKRF, A1CF and β-Actin.

No constants are given. Whether binding was seen depends on the method and setting. Binding seen in cells or lysates may run through a third protein. Binding calls can cover weak binding; strength is not graded here. For some assays here: Sequences can lack the tags named with a protein.

In the case of Flag-A1CF ∆RRM2 (human), in experiment [1], the binding result is recorded as “binds”.

For “Flag-RRM domain of A1CF (1-293aa) (human) (domain or fragment)”, in experiment [1], the binding result was “binds”.

In the case of Flag-A1CF ∆RRM1 (human), the binding result in experiment [1] was “binds weakly”.

Regarding Flag-tagged A1CF (full length) (human), the binding entry in experiment [1] is “binds”.

In the case of Flag-A1CF ∆RRM3 (human), the binding entry in experiment [1] is “binds”.

As to “Flag-auxiliary domain of A1CF (294-586aa) (human) (domain or fragment)”, the binding entry in experiment [1] is “no binding”.

B1: NF-κB-repressing factor (NKRF), endogenous in HEK293T (protein, UniProt O15226 1-690)
chain: MEKILQMAEGIDIGEMPSYDLVLSKPSKGQKRHLSTCDGQNPPKKQAGSKFHARPRFEPVHFVASSSKDERQEDPYGPQTKEVNEQTHFASMPRDIYQDYTQDSFSIQDGNSQYCDSSGFILTKDQPVTANMYFDSGNPAPSTTSQQANSQSTPEPSPSQTFPESVVAEKQYFIEKLTATIWKNLSNPEMTSGSDKINYTYMLTRCIQACKTNPEYIYAPLKEIPPADIPKNKKLLTDGYACEVRCQNIYLTTGYAGSKNGSRDRATELAVKLLQKRIEVRVVRRKFKHTFGEDLVVCQIGMSSYEFPPALKPPEDLVVLGKDASGQPIFNASAKHWTNFVITENANDAIGILNNSASFNKMSIEYKYEMMPNRTWRCRVFLQDHCLAEGYGTKKTSKHAAADEALKILQKTQPTYPSVKSSQCHTGSSPRGSGKKKDIKDLVVYENSSNPVCTLNDTAQFNRMTVEYVYERMTGLRWKCKVILESEVIAEAVGVKKTVKYEAAGEAVKTLKKTQPTVINNLKKGAVEDVISRNEIQGRSAEEAYKQQIKEDNIGNQLLRKMGWTGGGLGKSGEGIREPISVKEQHKREGLGLDVERVNKIAKRDIEQIIRNYARSESHTDLTFSRELTNDERKQIHQIAQKYGLKSKSHGVGHDRYLVVGRKRRKEDLLDQLKQEGQVGHYELVMPQAN
Consider B1, for which, in experiment [2], the binding entry is given as “binds”.

B2: NF-κB-repressing factor (NKRF), endogenous in 786-O (protein, UniProt O15226 1-690)
chain: MEKILQMAEGIDIGEMPSYDLVLSKPSKGQKRHLSTCDGQNPPKKQAGSKFHARPRFEPVHFVASSSKDERQEDPYGPQTKEVNEQTHFASMPRDIYQDYTQDSFSIQDGNSQYCDSSGFILTKDQPVTANMYFDSGNPAPSTTSQQANSQSTPEPSPSQTFPESVVAEKQYFIEKLTATIWKNLSNPEMTSGSDKINYTYMLTRCIQACKTNPEYIYAPLKEIPPADIPKNKKLLTDGYACEVRCQNIYLTTGYAGSKNGSRDRATELAVKLLQKRIEVRVVRRKFKHTFGEDLVVCQIGMSSYEFPPALKPPEDLVVLGKDASGQPIFNASAKHWTNFVITENANDAIGILNNSASFNKMSIEYKYEMMPNRTWRCRVFLQDHCLAEGYGTKKTSKHAAADEALKILQKTQPTYPSVKSSQCHTGSSPRGSGKKKDIKDLVVYENSSNPVCTLNDTAQFNRMTVEYVYERMTGLRWKCKVILESEVIAEAVGVKKTVKYEAAGEAVKTLKKTQPTVINNLKKGAVEDVISRNEIQGRSAEEAYKQQIKEDNIGNQLLRKMGWTGGGLGKSGEGIREPISVKEQHKREGLGLDVERVNKIAKRDIEQIIRNYARSESHTDLTFSRELTNDERKQIHQIAQKYGLKSKSHGVGHDRYLVVGRKRRKEDLLDQLKQEGQVGHYELVMPQAN
B2: in experiment [3], the binding result is reported as “binds”.
